Values from PubChem BioAssay AID652272 (Drosophila RNAi Screening Center, 2013).
Assay: 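Finding fly genes that regulate Hedgehog signal transduction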 (primary screen). System: Drosophila clone 8 (Cl8) cells. Reagents: long dsRNA against Drosophila genes. Detection: 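Plate reader light from a firefly reporter under a ptc promoter fragment that responds to Hedgehog, with Renilla light as transfection reference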. Direction: firefly Hh reporter signal: higher = more ptc reporter light; Renilla reference signal: higher = more Renilla control light. Call rule: 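Called a hit if the two-replicate mean z-score lies below -2 or above +3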. Meaning of the calls: active = hit: reporter lowered or raised; inactive = not a hit.
The screen tested about 21,000 reagents; shown is a random part of those that have a named target and a result. Of all reagents, 503 (2.4%) are marked active. 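Raw plate light values, not normalised; calls rest on replicate z-scores that were not deposited; hits include reporter decreases as well as increases.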 Names joined by + are all predicted targets of the reagent. Not stated in the record: the amount of reagent, the time to read-out.

Ppr-Y [DRSC20892]
- firefly Hh reporter signal, replicate 1: 7.62e5
- firefly Hh reporter signal, replicate 2: 2.48e5
- Renilla reference signal, replicate 1: 42918
- Renilla reference signal, replicate 2: 6305
- outcome: inactive

fd3F + CR42499 [DRSC18160]
- firefly Hh reporter signal, replicate 1: 60251
- firefly Hh reporter signal, replicate 2: 2.47e5
- Renilla reference signal, replicate 1: 1803
- Renilla reference signal, replicate 2: 8530
- outcome: inactive

fd3F + CR42499 [DRSC18161]
- firefly Hh reporter signal, replicate 1: 69162
- firefly Hh reporter signal, replicate 2: 3.10e5
- Renilla reference signal, replicate 1: 1767
- Renilla reference signal, replicate 2: 10736
- outcome: inactive

CG10041 [DRSC14179]
- firefly Hh reporter signal, replicate 1: 82899
- firefly Hh reporter signal, replicate 2: 82616
- Renilla reference signal, replicate 1: 2629
- Renilla reference signal, replicate 2: 2176
- outcome: inactive

CG14826 [DRSC10197]
- firefly Hh reporter signal, replicate 1: 39322
- firefly Hh reporter signal, replicate 2: 57329
- Renilla reference signal, replicate 1: 4323
- Renilla reference signal, replicate 2: 3691
- outcome: inactive

2 entries from above, showing only “firefly Hh reporter signal, replicate 1”:
fd3F + CR42499 [DRSC18161] = 69162
CG10041 [DRSC14179] = 82899

Next results follow.
clt [DRSC04621]
- firefly Hh reporter signal, replicate 1: 74525
- firefly Hh reporter signal, replicate 2: 54038
- Renilla reference signal, replicate 1: 2073
- Renilla reference signal, replicate 2: 5175
- outcome: inactive

Afg3l2 [DRSC10657]
- firefly Hh reporter signal, replicate 1: 83277
- firefly Hh reporter signal, replicate 2: 71744
- Renilla reference signal, replicate 1: 3095
- Renilla reference signal, replicate 2: 2698
- outcome: inactive

CG34348 [DRSC19425]
- firefly Hh reporter signal, replicate 1: 73090
- firefly Hh reporter signal, replicate 2: 2.04e5
- Renilla reference signal, replicate 1: 2739
- Renilla reference signal, replicate 2: 7458
- outcome: inactive

CG34348 [DRSC19644]
- firefly Hh reporter signal, replicate 1: 73732
- firefly Hh reporter signal, replicate 2: 1.81e5
- Renilla reference signal, replicate 1: 2530
- Renilla reference signal, replicate 2: 7424
- outcome: inactive

Qsox4 [DRSC14224]
- firefly Hh reporter signal, replicate 1: 1.08e5
- firefly Hh reporter signal, replicate 2: 96610
- Renilla reference signal, replicate 1: 4200
- Renilla reference signal, replicate 2: 3780
- outcome: inactive

Yod1 [DRSC10433]
- firefly Hh reporter signal, replicate 1: 1.85e5
- firefly Hh reporter signal, replicate 2: 1.22e5
- Renilla reference signal, replicate 1: 7328
- Renilla reference signal, replicate 2: 4832
- outcome: inactive

CG13123 [DRSC02219]
- firefly Hh reporter signal, replicate 1: 68467
- firefly Hh reporter signal, replicate 2: 50540
- Renilla reference signal, replicate 1: 2032
- Renilla reference signal, replicate 2: 4375
- outcome: inactive

Oga [DRSC15901]
- firefly Hh reporter signal, replicate 1: 75740
- firefly Hh reporter signal, replicate 2: 81405
- Renilla reference signal, replicate 1: 3536
- Renilla reference signal, replicate 2: 3050
- outcome: inactive

CG5274 [DRSC11774]
- firefly Hh reporter signal, replicate 1: 76771
- firefly Hh reporter signal, replicate 2: 90029
- Renilla reference signal, replicate 1: 3500
- Renilla reference signal, replicate 2: 3936
- outcome: inactive
